Drawing on publication PMC12520357 (2025), this text covers binding for two molecules.

Sequences of proteins named here, by UniProt entry; tags and fusion partners are left off.
UniProt P32598: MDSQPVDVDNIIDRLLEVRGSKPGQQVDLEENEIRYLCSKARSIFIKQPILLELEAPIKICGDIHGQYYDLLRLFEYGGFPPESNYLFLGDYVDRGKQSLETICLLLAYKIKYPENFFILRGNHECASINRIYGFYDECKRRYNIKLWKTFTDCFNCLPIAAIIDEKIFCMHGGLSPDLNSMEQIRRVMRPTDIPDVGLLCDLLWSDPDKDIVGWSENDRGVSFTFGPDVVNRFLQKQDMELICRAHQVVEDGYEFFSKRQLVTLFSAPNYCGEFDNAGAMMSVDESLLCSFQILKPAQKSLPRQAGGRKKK

In assay [1] the target is T1, Reg1-A54T-FLAG (S. cerevisiae) (UniProt Q00816).
T1 sequence: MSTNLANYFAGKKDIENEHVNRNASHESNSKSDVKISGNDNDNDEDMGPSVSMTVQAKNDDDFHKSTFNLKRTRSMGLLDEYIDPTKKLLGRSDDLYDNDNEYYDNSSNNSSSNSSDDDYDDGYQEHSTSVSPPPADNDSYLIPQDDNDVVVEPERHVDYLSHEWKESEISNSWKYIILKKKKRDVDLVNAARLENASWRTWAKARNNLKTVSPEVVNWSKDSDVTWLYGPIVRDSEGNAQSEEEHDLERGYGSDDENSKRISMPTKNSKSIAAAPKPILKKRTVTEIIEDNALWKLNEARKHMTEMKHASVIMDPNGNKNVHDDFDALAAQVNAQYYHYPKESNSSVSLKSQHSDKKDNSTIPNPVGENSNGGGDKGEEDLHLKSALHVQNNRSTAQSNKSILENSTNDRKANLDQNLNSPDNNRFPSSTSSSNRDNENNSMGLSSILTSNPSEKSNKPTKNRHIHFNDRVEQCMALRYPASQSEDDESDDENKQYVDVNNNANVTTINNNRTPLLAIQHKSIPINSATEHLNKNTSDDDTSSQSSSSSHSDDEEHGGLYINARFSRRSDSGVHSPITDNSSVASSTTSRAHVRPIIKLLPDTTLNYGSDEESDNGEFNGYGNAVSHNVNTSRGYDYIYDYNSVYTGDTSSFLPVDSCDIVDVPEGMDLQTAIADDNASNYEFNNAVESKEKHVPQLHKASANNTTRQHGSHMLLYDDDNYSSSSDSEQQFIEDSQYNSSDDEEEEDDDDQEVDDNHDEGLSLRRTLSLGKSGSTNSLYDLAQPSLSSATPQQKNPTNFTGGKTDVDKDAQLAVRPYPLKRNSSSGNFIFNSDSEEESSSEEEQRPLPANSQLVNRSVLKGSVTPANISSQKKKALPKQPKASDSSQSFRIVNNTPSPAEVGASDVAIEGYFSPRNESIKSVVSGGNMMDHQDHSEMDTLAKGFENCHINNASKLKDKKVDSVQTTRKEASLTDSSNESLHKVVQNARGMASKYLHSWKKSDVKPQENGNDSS
Description: co-IP; Reg1-FLAG precipitated on anti-FLAG M2 agarose from native yeast lysates (50 mM HEPES pH 7.5, 150 mM NaCl, 0.5% Triton X-100, 1 mM DTT, 10% glycerol), 1 h at 4°C; blots with anti-FLAG, anti-GFP (Glc7, Snf1) and anti-14-3-3; steady state.

The target of assay [2] is T2, Reg1-N624S-FLAG (S. cerevisiae) (UniProt Q00816).
T2 sequence: T1 sequence with T54A, N624S
Described as above.

Where a chain is given by its changes, count along the chain named. Results are given in words; binding and its absence hold for the method and conditions named. In cells and extracts the contact can be indirect. Some results given as binding are weak or reduced against the parent protein; the word gives no strength. Sequences can lack the tags named with a protein.

In the case of Glc7-GFP (from UniProt P32598 1-312), the binding result in assay [1] and in assay [2] was “binds” throughout.

B1: Snf1-GFP (protein, UniProt P06782 1-633)
chain: MSSNNNTNTAPANANSSHHHHHHHHHHHHHGHGGSNSTLNNPKSSLADGAHIGNYQIVKTLGEGSFGKVKLAYHTTTGQKVALKIINKKVLAKSDMQGRIEREISYLRLLRHPHIIKLYDVIKSKDEIIMVIEYAGNELFDYIVQRDKMSEQEARRFFQQIISAVEYCHRHKIVHRDLKPENLLLDEHLNVKIADFGLSNIMTDGNFLKTSCGSPNYAAPEVISGKLYAGPEVDVWSCGVILYVMLCRRLPFDDESIPVLFKNISNGVYTLPKFLSPGAAGLIKRMLIVNPLNRISIHEIMQDDWFKVDLPEYLLPPDLKPHPEEENENNDSKKDGSSPDNDEIDDNLVNILSSTMGYEKDEIYESLESSEDTPAFNEIRDAYMLIKENKSLIKDMKANKSVSDELDTFLSQSPPTFQQQSKSHQKSQVDHETAKQHARRMASAITQQRTYHQSPFMDQYKEEDSTVSILPTSLPQIHRANMLAQGSPAASKISPLVTKKSKTRWHFGIRSRSYPLDVMGEIYIALKNLGAEWAKPSEEDLWTIKLRWKYDIGNKTNTNEKIPDLMKMVIQLFQIETNNYLVDFKFDGWESSYGDDTTVSNISEDEMSTFSAYPFLHLTTKLIMELAVNSQSN
Consider B1, for which the binding result in assay [1] and in assay [2] was “binds” in each case.
